Results from US20150104459A1.
No constants are given. Whether binding was seen depends on the method and setting. Some results given as binding are weak or reduced against the parent protein; the word gives no strength.

Amino acid sequences for entries named in this document (tags omitted).
UniProt P06821: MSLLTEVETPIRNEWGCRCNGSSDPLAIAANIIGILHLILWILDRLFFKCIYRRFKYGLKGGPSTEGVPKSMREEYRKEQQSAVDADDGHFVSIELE

Molecular target: M2 protein of A/Puerto Rico/8/34 (H1N1) on virus particles (influenza A virus A/Puerto Rico/8/34 (H1N1)) (UniProt P06821)
Assay: surface plasmon resonance on influenza virus; numbers stand in Table 4

B1: TCN-031 Fab fragment (Fab, V domains shown)
VH: EVQLVESGGGLVQPGGSLRISCAASGFTVSSNYMSWVRQAPGKGLEWVSVIYSGGSTYYADSVKGRFSFSRDNSKNTVFLQMNSLRAEDTAVYYCARCLSRMRGYGLDVWGQGTTVTVS
VL: DIQMTQSPSSLSASVGDRVTITCRTSQSISSYLNWYQQKPGKAPKLLIYAASSLQSGVPSRFSGSGSGTDFTLTISGLQPEDFATYYCQQSYSMPAFGQGTKLEIK
- binding: binds
